According to PubChem BioAssay AID2685 (National Center for Advancing Translational Sciences (NCATS), 2010):
Some of the results follow. Shown are side measurements of this screen, not its main read-out; they come without a call. Most of these compounds were active or inconclusive in the main read-out, so they are no random draw. Words in brackets tell the shape of the fitted curve; partial curves, single points and poor fits give uncertain potencies.

Assay: qHTS Assay for Lipid Storage Modulators in Drosophila S3 Cells;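 as to cell number change: cells counted by Cell Tracker Red CMTPX staining in the red channel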
Settings: BODIPY lipid droplet fluorescence, 18-24 h; for cell number change: measured here: cell count max response, cells fed with added oleic acid
How it was run: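 Drosophila S3 cells got compounds at several concentrations plus oleic acid (400 uM solution). Laser-scanning cytometry with 488 nm excitation read lipid droplets at 500-530 nm and cells at 575-640 nm. Percent activity was relative to 20 uM Triacsin C.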

[1] = measured here: lipid fluorescence (Fed channel) AC50, cells fed with added oleic acid
[2] = measured here: cell number channel AC50, cells fed with added oleic acid

Compound	cell number change	AC50 [1]	AC50 [2]
O=C(O)C1CCCN1S(=O)(=O)c1ccc(Br)cc1 (stereo not given)	-12.1%	4.11 µM [falling, single point]	
O=C(CN1CCCC1)Nc1cc(C(F)(F)F)ccc1Cl	17.9%		0.103 µM [rising, full curve, poor fit]
Cc1ccc(CN2CCN(/N=C\C(Br)=C\c3ccccc3)CC2)cc1	-18%	18.4 µM [falling, single point]	
CCOC(=O)c1cccc(NC(=O)COc2nsnc2N2CCOCC2)c1	-6.67%		
Cc1cc(N2CCCC(C(=O)Nc3ccc4c(c3)CCC4)C2)n2ncnc2n1 (stereo not given)	-9.29%	2.59 µM [rising, single point]	
O=C(c1ccc(-c2cccc(C(F)(F)F)c2)o1)N1CCN(c2ccccc2)CC1	49.6%	4.61 µM [falling, partial curve, poor fit]	16.4 µM [rising, single point]
NC(=S)N/N=C1\CC(c2ccc3c(c2)OCCCO3)Oc2ccc(F)cc21 (stereo not given)	-27.4%	29.1 µM [falling, single point]	
CC(C)(C)NC(=O)NC(=O)CN1C(=O)NC(c2ccccc2)(c2ccccc2)C1=O	3.15%		
CCN1CCN(c2cc(C)c3cc(NC(=S)N4CCCC4)ccc3n2)CC1	40.8%	0.82 µM [falling, partial curve, poor fit]	
O=C(O)[C@@H]1CCCC[C@@H]1C(=O)N1CCc2ccccc2C1CN1C(=O)c2ccccc2C1=O (stereo not given in full)	-1.07%	0.731 µM [rising, partial curve]	
N/C(=N\OC(=O)CCCCCN1C(=O)c2ccccc2C1=O)c1ccccc1			1.3 µM [rising, partial curve]
CN(C(=O)CSc1nnc(-c2ccncc2)n1C)C1CCS(=O)(=O)C1 (stereo not given)	0.95%	0.517 µM [falling, full curve]	
N#Cc1ccc(CN2CCN(C(=O)CNS(=O)(=O)c3ccc4c(c3)OCCCO4)CC2)cc1	-6.22%	0.651 µM [falling, single point]	
COc1ccc(NC(=O)CCc2c(C)nc3nc(C)nn3c2C)cc1			0.461 µM [falling, single point]
CC(NC(=O)CCCc1nnc2n(C)c(=O)c3sccc3n12)c1ccccc1 (stereo not given)	2.29%	6.51 µM [falling, single point]	6.51 µM [falling, single point]
Fc1ccc(N/N=C/c2cccnc2)c(F)c1	52%	3.26 µM [rising, full curve]	29.1 µM [rising, single point]
O=C(O)c1cccc2c1C(=O)c1ccc(Cl)cc1S2(=O)=O	1.41%	0.092 µM [falling, full curve, poor fit]	0.146 µM [falling, full curve, poor fit]
CCOC(=O)COc1ccc(-c2nnc(-c3ccccc3)o2)cc1	4.24%	23.1 µM [falling, single point]	
CC(C)OCCCNc1nc2c(-c3ccccc3)nnn2c2ccccc12	5.48%	6.51 µM [falling, single point]	
CCCN1C(=O)C(O)(C2COC(C)(C)CC2=O)c2ccccc21 (stereo not given)	5.01%		

Compound	cell number change	AC50 [1]	AC50 [2]
O=C1CC(c2cccc([N+](=O)[O-])c2)c2c(ccc3ccccc23)N1 (stereo not given)		2.91 µM [falling, single point]	
CC/C(=N\NC(=O)c1ccccc1Cl)c1ccc(Br)s1	-16.6%	0.651 µM [falling, full curve, poor fit]	
O=C(c1cc(-c2cccc(Cl)c2)on1)N1CCCC1	5.83%		
CCOC(=O)Cn1c(=O)oc2cc(S(=O)(=O)Nc3cccc(C)c3)ccc21	49.6%	1.64 µM [rising, single point]	7.31 µM [rising, partial curve]
Cc1ccc2oc(C(=O)N3CCC(C(N)=O)(N4CCCCC4)CC3)c(C)c2c1		29.1 µM [falling, single point]	
CCOC(=O)c1[nH]cnc1N=Nc1c(O)ccc2ccccc12	-5.98%	25.9 µM [falling, single point]	
O=C(c1ccc(F)cc1)N1CCCC(c2nc(-c3ccncc3)no2)C1 (stereo not given)	14.8%	29.1 µM [rising, single point]	
Cc1ccccc1-n1c(O)c(/C=N/N2CCCCC2c2cccnc2)c(=O)[nH]c1=O (stereo not given)	5.47%	0.731 µM [falling, full curve, poor fit]	
C=CCN(C(C)=O)C1CC(=O)N(c2ccc(OCCC)cc2)C1=O (stereo not given)			2.31 µM [rising, single point]
CCOC(=O)c1c(-c2ccccc2)oc2ccc(OCC(=O)O)cc12	12.6%		0.082 µM [falling, full curve, poor fit]
COC(=O)c1ccc(CN2CCCC(C(=O)Nc3cccc(-n4cccn4)c3)C2)cc1 (stereo not given)	5.01%	0.58 µM [rising, single point]	
COc1cccc(N(C(=O)CNC(=O)c2ccco2)C(C(=O)NC2CCCCC2)c2ccncc2)c1 (stereo not given)	17.4%	0.164 µM [falling, full curve, poor fit]	1.16 µM [rising, single point]
COc1ccc(CN2CCC(N3CC(C)OC(C)C3)CC2)c(OC)c1OC (stereo not given)	-3.56%	16.4 µM [falling, single point]	
c1ccc(CCOn2ccnc2)cc1	28.8%	25.9 µM [rising, partial curve, poor fit]	
CCOc1cc(C#N)c(NC(=O)Cn2nnc3ccccc32)cc1OCC	-2.44%	0.231 µM [rising, full curve, poor fit]	
CNS(=O)(=O)c1c(C)cc(C)c(N(C)S(=O)(=O)c2ccccc2)c1C	-10.7%	0.00517 µM [falling, full curve, poor fit]	
COc1cc(/C=N/n2cnnc2)ccc1OCCOc1ccccc1	-7.41%	5.8 µM [falling, single point]	
O=C(NCC1CCCN(C(=O)c2cc(Cl)ccc2F)C1)c1ccc(F)cc1 (stereo not given)	57.3%		18.4 µM [rising, single point]
Cc1[nH]c2ccccc2c1C(=O)C(=O)Nc1ccc2c(c1)OCCO2	-18.5%		
Cc1c(C(=O)N2CCN(C3CCS(=O)(=O)C3)CC2)oc2ccc(Cl)cc12 (stereo not given)	-25%	6.51 µM [falling, single point]	

In a second layout: results already given.

| Compound | cell number change | AC50 [1] | AC50 [2] |
| --- | --- | --- | --- |
| COc1ccc(NC(=O)CCc2c(C)nc3nc(C)nn3c2C)cc1 |  |  | 0.461 µM [falling, single point] |
| CC(NC(=O)CCCc1nnc2n(C)c(=O)c3sccc3n12)c1ccccc1 (stereo not given) | 2.29% | 6.51 µM [falling, single point] | 6.51 µM [falling, single point] |
| Fc1ccc(N/N=C/c2cccnc2)c(F)c1 | 52% | 3.26 µM [rising, full curve] | 29.1 µM [rising, single point] |

Following part:

Compound	cell number change	AC50 [1]	AC50 [2]
CCOC(=O)N1CCC(N2C(=O)c3ccccc3C2Nc2ccccc2)CC1 (stereo not given)	14.1%		0.58 µM [rising, full curve, poor fit]
O=C(CN(Cc1ccc(Cl)cc1)C(=O)CN1C(=O)COc2ccccc21)NC1CCCC1	76.1%	0.58 µM [rising, single point]	25.9 µM [rising, single point]
Cc1cc2c(c(=O)n1Cc1cccnc1)C(Cc1ccccc1)C(C#N)=C(N)O2 (stereo not given)		0.651 µM [rising, full curve, poor fit]	
CCCCCn1c(Sc2nc3ccccc3s2)nc2c1c(=O)[nH]c(=O)n2C	-21.2%	3.26 µM [rising, partial curve]	2.91 µM [rising, single point]
CCc1ccccc1NS(=O)(=O)c1ccc(OC)c2ncccc12	10.1%	29.1 µM [falling, single point]	
COc1cccc(NC(=O)C(C)NS(=O)(=O)c2ccc(Br)cc2)c1 (stereo not given)	-13.1%	0.00411 µM [rising, full curve, poor fit]	
CCCc1nn2c(=O)cc(COc3cccc(NC(=O)c4ccco4)c3)nc2s1	-11.9%		4.11 µM [falling, single point]
O=C(Nc1ccc(F)cc1)Nc1nnc(Cc2ccccc2)s1	3.28%	0.206 µM [rising, partial curve]	
Cc1cc(=O)n2nc(N3CCCC3C(=O)NCCCN3CC(C)CC(C)C3)sc2n1 (stereo not given)		0.103 µM [falling, full curve]	
CC(=O)c1cccc(NC(=O)C2(c3ccccc3)CC2(Cl)Cl)c1 (stereo not given)	-34.1%		
CCOC(=O)c1cnc2c(Cl)cccc2c1NCCN1CCOCC1	3.5%		
Cc1ccc(NC(=O)c2cccc(NC(=O)/C=C/c3ccco3)c2)cc1C	-20.4%	8.2 µM [falling, partial curve]	
O=S(=O)(c1ccc(Cl)cc1)N1CCN(Cc2cccnc2)CC1		35.5 µM [rising, single point]	
Cc1ccc(N2C(=O)N(CC(=O)Nc3ccccc3C(F)(F)F)C(=O)C2C)cc1 (stereo not given)	-43.5%	2.31 µM [rising, partial curve]	32.6 µM [falling, single point]
COc1cccc(C(=O)Nc2cccc(NC(=O)c3ccccc3Cl)c2)c1	-34.1%	6.51 µM [falling, single point]	18.4 µM [falling, partial curve, poor fit]
CCOc1ccc(OCCN(C)Cc2ccccc2)cc1	-1.14%	29.1 µM [falling, single point]	
Cc1ccccc1-c1nc2ccccc2o1	37.4%	9.2 µM [rising, partial curve]	2.91 µM [rising, full curve]
CCNC(=O)CN1C(=O)NC2(CCCCCC2)C1=O	12.5%	6.51 µM [falling, single point]	
O=C(NCc1ccccc1Cl)c1ccccc1CCc1ccccc1	36.9%	18.4 µM [rising, single point]	8.2 µM [rising, partial curve]
